Results from the supplement of paper PMC10849652.
The list shows a part of the results.

Protein sequences, listed by entry. Tags and fused reporters are not part of them. Lines headed by an entry give the natural chain unless they say otherwise; changes in a name come on top.
UniProt O14867: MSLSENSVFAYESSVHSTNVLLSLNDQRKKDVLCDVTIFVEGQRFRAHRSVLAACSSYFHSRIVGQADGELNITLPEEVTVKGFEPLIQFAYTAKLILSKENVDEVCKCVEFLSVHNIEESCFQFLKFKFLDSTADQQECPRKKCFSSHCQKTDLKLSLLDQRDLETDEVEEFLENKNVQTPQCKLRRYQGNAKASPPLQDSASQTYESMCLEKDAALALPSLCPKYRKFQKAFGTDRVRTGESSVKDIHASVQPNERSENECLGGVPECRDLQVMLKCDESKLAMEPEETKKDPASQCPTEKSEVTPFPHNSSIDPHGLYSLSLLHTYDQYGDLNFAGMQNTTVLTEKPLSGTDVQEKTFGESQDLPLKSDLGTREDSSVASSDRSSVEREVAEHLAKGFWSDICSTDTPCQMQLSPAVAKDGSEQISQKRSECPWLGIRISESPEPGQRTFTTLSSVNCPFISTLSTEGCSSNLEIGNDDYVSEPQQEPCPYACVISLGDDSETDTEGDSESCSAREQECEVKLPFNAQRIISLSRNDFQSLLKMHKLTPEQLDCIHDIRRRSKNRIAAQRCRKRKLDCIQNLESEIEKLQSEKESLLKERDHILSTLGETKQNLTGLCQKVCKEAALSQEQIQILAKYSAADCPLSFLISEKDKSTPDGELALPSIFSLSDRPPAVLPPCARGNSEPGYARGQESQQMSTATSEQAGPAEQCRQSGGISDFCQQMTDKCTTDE
UniProt Q6PJG6: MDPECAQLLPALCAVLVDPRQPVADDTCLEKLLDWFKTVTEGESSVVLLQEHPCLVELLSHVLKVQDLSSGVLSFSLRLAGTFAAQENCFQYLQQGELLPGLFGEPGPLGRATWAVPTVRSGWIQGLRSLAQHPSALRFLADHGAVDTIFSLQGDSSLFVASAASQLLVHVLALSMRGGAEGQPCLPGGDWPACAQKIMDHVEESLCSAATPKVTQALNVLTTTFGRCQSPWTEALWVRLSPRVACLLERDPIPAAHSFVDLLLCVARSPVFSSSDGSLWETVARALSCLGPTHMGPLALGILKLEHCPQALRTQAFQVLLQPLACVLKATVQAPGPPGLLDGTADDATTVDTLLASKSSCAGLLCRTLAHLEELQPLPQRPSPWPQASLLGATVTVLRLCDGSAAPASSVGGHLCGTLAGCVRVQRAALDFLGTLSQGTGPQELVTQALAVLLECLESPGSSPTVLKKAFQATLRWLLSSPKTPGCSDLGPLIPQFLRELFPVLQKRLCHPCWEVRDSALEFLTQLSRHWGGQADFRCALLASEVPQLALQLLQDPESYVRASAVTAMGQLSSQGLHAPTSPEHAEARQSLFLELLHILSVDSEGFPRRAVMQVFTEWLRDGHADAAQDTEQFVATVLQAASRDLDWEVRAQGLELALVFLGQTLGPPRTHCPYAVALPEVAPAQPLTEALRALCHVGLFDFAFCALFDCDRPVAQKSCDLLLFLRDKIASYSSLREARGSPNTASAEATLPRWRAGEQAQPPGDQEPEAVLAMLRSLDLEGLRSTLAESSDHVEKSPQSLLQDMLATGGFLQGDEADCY
UniProt Q9HB09: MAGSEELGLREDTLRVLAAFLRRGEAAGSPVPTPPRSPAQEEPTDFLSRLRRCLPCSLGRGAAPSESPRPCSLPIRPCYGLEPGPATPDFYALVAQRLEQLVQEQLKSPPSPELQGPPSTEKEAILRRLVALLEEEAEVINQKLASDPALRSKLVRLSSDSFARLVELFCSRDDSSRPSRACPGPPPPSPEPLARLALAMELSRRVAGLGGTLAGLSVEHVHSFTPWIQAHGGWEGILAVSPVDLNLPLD
UniProt Q9NRL2: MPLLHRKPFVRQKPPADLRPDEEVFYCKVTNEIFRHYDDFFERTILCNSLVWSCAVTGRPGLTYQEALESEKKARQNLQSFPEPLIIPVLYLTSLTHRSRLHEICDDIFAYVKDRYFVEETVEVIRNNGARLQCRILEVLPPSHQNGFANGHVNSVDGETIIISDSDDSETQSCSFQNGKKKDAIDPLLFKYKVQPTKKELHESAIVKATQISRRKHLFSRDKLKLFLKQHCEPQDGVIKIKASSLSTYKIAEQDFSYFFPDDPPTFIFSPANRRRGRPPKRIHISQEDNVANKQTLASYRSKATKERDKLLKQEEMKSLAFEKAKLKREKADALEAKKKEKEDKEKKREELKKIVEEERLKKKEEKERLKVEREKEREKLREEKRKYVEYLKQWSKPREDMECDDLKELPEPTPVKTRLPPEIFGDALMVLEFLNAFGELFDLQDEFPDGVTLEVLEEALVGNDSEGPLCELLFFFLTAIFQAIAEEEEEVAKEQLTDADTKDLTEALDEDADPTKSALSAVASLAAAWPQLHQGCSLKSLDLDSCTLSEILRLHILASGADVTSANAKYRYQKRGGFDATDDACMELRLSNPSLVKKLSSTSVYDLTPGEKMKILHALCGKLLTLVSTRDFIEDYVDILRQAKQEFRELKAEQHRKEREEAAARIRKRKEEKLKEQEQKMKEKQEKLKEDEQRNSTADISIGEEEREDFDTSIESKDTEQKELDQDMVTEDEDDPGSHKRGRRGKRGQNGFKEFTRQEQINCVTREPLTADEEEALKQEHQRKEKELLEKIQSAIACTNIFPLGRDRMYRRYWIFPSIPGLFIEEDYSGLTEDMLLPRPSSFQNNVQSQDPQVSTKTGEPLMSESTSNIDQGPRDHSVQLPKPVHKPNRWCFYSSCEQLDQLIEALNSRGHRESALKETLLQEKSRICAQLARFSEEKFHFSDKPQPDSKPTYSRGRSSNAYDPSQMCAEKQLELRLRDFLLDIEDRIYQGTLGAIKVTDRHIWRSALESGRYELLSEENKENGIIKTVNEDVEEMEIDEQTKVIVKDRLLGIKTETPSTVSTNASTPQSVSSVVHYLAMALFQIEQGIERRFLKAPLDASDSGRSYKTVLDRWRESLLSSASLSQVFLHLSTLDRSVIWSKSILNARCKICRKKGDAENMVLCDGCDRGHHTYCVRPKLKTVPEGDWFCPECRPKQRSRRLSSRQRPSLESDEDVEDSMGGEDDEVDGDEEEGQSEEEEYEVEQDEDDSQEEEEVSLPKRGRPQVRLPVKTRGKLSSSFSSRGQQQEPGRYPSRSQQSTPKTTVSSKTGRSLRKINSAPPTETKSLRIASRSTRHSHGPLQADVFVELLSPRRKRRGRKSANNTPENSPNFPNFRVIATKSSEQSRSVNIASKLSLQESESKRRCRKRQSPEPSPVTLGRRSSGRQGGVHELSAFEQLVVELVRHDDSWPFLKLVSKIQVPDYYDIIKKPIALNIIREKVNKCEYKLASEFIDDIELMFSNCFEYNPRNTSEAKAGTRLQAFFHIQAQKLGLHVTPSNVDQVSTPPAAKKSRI
UniProt Q6QNY1: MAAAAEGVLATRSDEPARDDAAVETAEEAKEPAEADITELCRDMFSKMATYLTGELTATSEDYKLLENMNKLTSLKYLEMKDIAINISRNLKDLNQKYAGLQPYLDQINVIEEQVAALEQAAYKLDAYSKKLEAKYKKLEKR
UniProt Q5H9F3: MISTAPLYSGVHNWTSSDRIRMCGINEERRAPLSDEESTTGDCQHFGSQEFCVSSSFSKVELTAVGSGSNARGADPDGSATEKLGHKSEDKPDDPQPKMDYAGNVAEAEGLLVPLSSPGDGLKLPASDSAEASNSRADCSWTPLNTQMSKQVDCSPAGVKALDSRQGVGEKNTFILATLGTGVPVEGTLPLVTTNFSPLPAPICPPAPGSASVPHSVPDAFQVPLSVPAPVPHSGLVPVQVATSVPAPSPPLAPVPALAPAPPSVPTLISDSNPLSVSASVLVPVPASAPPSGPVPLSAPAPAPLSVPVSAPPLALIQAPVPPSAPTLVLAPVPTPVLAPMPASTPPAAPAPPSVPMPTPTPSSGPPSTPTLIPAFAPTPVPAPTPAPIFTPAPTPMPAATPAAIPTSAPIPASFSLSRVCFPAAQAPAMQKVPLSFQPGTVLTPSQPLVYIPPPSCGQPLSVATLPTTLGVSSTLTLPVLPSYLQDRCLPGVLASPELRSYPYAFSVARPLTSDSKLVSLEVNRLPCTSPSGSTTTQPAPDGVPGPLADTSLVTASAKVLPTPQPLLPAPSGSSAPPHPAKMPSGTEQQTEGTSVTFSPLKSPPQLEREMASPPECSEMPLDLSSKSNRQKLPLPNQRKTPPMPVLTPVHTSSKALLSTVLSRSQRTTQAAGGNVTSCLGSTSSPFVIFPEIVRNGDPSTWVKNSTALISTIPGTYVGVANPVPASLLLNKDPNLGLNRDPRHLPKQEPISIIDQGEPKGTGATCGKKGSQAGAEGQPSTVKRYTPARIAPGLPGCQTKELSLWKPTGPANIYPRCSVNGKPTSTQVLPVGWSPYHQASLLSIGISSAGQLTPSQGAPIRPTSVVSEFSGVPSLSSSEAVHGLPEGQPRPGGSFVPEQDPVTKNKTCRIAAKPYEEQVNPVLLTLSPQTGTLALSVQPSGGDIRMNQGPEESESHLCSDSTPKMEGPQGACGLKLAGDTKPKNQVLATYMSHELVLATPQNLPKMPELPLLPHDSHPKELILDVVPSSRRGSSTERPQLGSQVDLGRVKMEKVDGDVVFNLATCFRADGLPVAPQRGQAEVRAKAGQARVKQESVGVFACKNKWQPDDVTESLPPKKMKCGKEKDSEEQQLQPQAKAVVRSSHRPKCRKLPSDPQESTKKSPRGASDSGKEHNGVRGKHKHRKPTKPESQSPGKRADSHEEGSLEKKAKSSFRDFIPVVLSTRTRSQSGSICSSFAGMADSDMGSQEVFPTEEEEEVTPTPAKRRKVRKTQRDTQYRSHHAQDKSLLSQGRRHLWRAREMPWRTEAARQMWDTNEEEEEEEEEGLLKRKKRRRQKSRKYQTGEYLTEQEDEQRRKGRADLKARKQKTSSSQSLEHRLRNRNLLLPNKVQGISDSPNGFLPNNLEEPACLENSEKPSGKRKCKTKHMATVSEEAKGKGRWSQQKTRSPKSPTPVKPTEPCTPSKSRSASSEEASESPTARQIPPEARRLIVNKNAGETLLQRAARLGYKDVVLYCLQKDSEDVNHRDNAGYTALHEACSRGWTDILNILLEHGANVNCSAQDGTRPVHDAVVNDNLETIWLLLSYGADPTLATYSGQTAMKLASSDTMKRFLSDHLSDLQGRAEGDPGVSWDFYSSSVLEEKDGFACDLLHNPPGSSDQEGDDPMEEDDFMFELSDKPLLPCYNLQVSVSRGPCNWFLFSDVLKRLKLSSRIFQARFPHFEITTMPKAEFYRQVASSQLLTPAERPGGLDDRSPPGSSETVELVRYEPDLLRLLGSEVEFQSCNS
UniProt Q9NP55: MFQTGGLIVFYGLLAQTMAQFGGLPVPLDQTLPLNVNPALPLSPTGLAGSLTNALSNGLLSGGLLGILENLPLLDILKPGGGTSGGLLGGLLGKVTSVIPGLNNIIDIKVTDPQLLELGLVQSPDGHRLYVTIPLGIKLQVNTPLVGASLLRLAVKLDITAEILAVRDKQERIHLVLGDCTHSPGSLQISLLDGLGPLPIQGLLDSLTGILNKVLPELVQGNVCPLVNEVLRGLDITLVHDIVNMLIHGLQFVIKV
UniProt Q15059, whole entry, looked up: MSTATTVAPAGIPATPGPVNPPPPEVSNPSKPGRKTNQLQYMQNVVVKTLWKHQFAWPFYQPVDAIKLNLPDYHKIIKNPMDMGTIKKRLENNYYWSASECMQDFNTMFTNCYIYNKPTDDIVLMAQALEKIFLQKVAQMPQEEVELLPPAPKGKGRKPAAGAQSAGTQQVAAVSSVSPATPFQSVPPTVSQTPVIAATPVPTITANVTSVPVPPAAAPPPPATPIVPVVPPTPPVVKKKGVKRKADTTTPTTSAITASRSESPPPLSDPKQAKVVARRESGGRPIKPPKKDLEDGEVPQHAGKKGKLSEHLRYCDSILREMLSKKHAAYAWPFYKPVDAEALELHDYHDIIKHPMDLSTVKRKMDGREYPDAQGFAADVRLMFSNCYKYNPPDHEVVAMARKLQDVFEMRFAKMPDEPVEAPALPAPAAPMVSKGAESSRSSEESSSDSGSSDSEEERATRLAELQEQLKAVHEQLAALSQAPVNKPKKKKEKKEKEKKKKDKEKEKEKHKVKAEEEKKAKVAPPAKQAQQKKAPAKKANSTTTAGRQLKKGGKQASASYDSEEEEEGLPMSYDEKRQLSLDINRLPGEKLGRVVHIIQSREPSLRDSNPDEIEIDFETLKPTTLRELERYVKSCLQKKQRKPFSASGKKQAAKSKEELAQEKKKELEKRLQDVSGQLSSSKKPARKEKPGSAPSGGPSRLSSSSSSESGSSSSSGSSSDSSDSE

Assays:
Test in all cases: log2 fold change, soluble protein after heating vs DMSO (PISA); higher = thermal stabilisation; K562 lysate, 10 uM; active = over 0.2 and 3.5 SD of the protein, either way, in both replicates (recomputed)
[1] = compound: C#Cc1cccc(Nc2ncnc3cc(OCCOC)c(OCCOC)cc23)c1 [erlotinib]
Outline: (§1)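 Dounce homogenisation of K562 pellets in PBS pH 7.4 with 1 mM MgCl2 produced a crude extract, used at 1 mg/mL protein. Exposure to 10 μM compound lasted 30 min, and aliquots were then heated for 3 min across 48°C-58°C, pooled and brought to 0.5% NP-40 at 4°C. The supernatant after 21,000xg for 90 min was quantified by TMTpro 16plex LC-MS/MS with channel sums equalised. Duplicate values are given as log-two fold change in thermal stability relative to solvent controls.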

[2] = compound: C/C(=N\NC(=O)C1=CC(=CC=C1)S(=O)(=O)N2CCOCC2)/C3=C(C=CC(=C3)Cl)O
Outline: as §1

[3] = compound: C1=CC(=CC=C1C2=NC3=C(N2)C=C(C=C3)C(=O)N)OC4=CC=C(C=C4)Cl
Outline: as §1

[4] = compound: C1=CC2=C(C=CC(=C2)/C=C\3/C(=O)NC(=NCC4=CC=CS4)S3)N=C1
Outline: as §1

[5] = compound: C1=CC2=NC=CN=C2C=C1/C=C/3\C(=O)NC(=O)S3
Outline: as §1

[6] = compound: C1=CC=C(C=C1)C2=NC(=C(N2)C3=CC=NC=C3)C4=CC(=C(C=C4)Cl)O
Outline: as §1

[7] = compound: C1=CC=C2C(=C1)C3=NNC4=CC=CC(=C43)C2=O
Outline: as §1

[8] = compound: C1CCN(C1)C(=O)NC2=CC=CC(=C2)NC3=NC=C(C(=N3)NCCC4=CN=CN4)Br
Outline: as §1

[9] = compound: C1CN(CCC1(CC2=CC=C(C=C2)Cl)N)C3=NC=NC4=C3C=CN4
Outline: as §1

[10] = compound: C1COCCN1CCN2C3=CC=CC=C3N=C2NC(=O)C4=CC(=CC=C4)[N+](=O)[O-] [IRAK-1-4 Inhibitor I]
Outline: as §1

[11] = compound: C=CC(=O)N1CCC[C@@H](n2nc(-c3ccc(Oc4ccccc4)cc3)c3c(N)ncnc32)C1 [ibrutinib]
Outline: as §1

[12] = compound: CC(=O)c1cnc2ccc(-c3cc(Cl)c(O)c(Cl)c3)nc2c1N[C@H]1CC[C@H](CN(C)C)CC1
Outline: as §1

[13] = compound: CC(C)(C)Cn1c(N)nc2ccc(-c3[nH]c(C(C)(C)C)nc3-c3ccc(F)cc3)nc21 [ralimetinib]
Outline: as §1

[14] = compound: CC(C)(O)CC(=O)NCCn1ccc2ncnc(Nc3ccc(Oc4cccc(C(F)(F)F)c4)c(Cl)c3)c21
Outline: as §1

[15] = compound: CC(C)C1=C2N=C(C=C(N2N=C1)NCC3=CC=CC=C3)NCCCCCCN
Outline: as §1

[16] = compound: CC1=C(C(CC(=O)N1)C2=CC=C(C=C2)C(F)(F)F)C(=O)NC3=C(C=C4C(=C3)C=NN4)F
Outline: as §1

[17] = compound: CC1=C(C2=C(C=C1)C(=O)C3=CC=CC=C3N2CCCN)C
Outline: as §1

[18] = compound: CC1=C(C=C(C=C1)NC(=O)C2=CC(=CC=C2)C(C)(C)C#N)NC3=CC4=C(C=C3)N=CN(C4=O)C
Outline: as §1

[19] = compound: CC1=C(C=C(C=C1)NC(=O)C2=CC(=CC=C2)N(C)C)NC(=O)C3=CC=C(C=C3)O
Outline: as §1

[20] = compound: CC1=CC=C(C=C1)SC2=C3C=C(SC3=CN=C2)C(=O)N
Outline: as §1

Measured: log2 fold change

BAIAP2L1 (UniProt Q9UHR4)
inactive: [1] -0.024 | [2] -0.006 | [3] 0.001 | [4] 0.015 | [5] -0.023 | [6] 0.025 | [7] 0.031 | [8] -0.003 | [9] -0.015 | [10] -0.01 | [11] 0.029 | [12] -0.004 | [13] -0.032 | [14] 0.011 | [15] -0.002 | [16] 0.005 | [17] 0.001 | [18] 0.001 | [19] -0.003 | [20] -0.01

BACH1 (UniProt O14867)
inactive: [1] 0.033 | [2] 0.005 | [3] 0.002 | [4] 0.02 | [5] 0.013 | [6] 0.038 | [7] 0.006 | [8] -0.031 | [9] 0.023 | [10] 0.027 | [11] -0.066 | [12] 0.016 | [13] -0.003 | [14] -0.039 | [15] -0.007 | [16] 0.043 | [17] 0.028 | [18] 0.011 | [19] -0.013 | [20] -0.01

BRAT1 (UniProt Q6PJG6)
inactive: [1] 0.05 | [2] -0.01 | [3] -0.052 | [4] 0.006 | [5] 0.026 | [6] 0.03 | [7] -0.075 | [8] 0.003 | [9] -0.013 | [10] -0.013 | [11] 0.002 | [12] 0.013 | [13] 0.005 | [14] -0.038 | [15] -0.001 | [16] -0.028 | [17] 0 | [18] -0.006 | [19] -0.015 | [20] 0.019

BCL2L12 (UniProt Q9HB09)
inactive: [1] 0.055 | [2] -0.067 | [3] -0.01 | [4] -0.056 | [5] 0.119 | [6] -0.111 | [7] 0.144 | [8] 0.162 | [9] 0.015 | [10] 0.002 | [11] -0.26 | [12] -0.084 | [13] 0.073 | [14] -0.024 | [15] 0.057 | [16] 0 | [17] -0.021 | [18] 0.028 | [19] -0.024 | [20] 0.099

BAZ1A (UniProt Q9NRL2)
inactive: [1] 0.048 | [2] 0.235 | [3] -0.172 | [4] -0.148 | [5] -0.057 | [6] 0.004 | [7] 0.004 | [8] 0 | [9] 0.16 | [10] 0.026 | [11] -0.042 | [13] 0.043 | [14] -0.167 | [15] 0.002 | [16] 0.156 | [17] -0.013 | [18] -0.004 | [19] 0.002

BORCS5 (UniProt Q969J3)
inactive: [1] -0.014 | [2] -0.027 | [3] 0.016 | [4] 0.015 | [5] -0.036 | [6] -0.017 | [7] -0.012 | [8] 0.029 | [9] 0.128 | [10] 0.004 | [11] 0.088 | [12] -0.02 | [13] -0.033 | [14] 0.012 | [15] 0.033 | [16] 0.153 | [17] -0.012 | [18] 0.021 | [19] 0.034 | [20] -0.001

BLOC1S2 (UniProt Q6QNY1)
inactive: [1] -0.076 | [2] -0.176 | [3] 0.022 | [4] 0.011 | [5] -0.077 | [7] -0.026 | [8] 0.023 | [9] 0.123 | [11] 0.144 | [12] -0.038 | [15] 0.043 | [16] 0.001 | [17] 0.004 | [18] 0.166 | [20] -0.056

2 consecutive records already listed:
BORCS5 (UniProt Q969J3)
inactive: [1] -0.014 | [2] -0.027 | [3] 0.016 | [4] 0.015 | [5] -0.036 | [6] -0.017 | [7] -0.012 | [8] 0.029 | [9] 0.128 | [10] 0.004 | [11] 0.088 | [12] -0.02 | [13] -0.033 | [14] 0.012 | [15] 0.033 | [16] 0.153 | [17] -0.012 | [18] 0.021 | [19] 0.034 | [20] -0.001

BLOC1S2 (UniProt Q6QNY1)
inactive: [1] -0.076 | [2] -0.176 | [3] 0.022 | [4] 0.011 | [5] -0.077 | [7] -0.026 | [8] 0.023 | [9] 0.123 | [11] 0.144 | [12] -0.038 | [15] 0.043 | [16] 0.001 | [17] 0.004 | [18] 0.166 | [20] -0.056

Next entries.

BCORL1 isoform 3 (UniProt Q5H9F3)
inactive: [1] 0.002 | [2] -0.015 | [3] 0.15 | [4] -0.117 | [6] 0.004 | [7] -0.115 | [8] -0.114 | [9] -0.005 | [13] -0.07 | [14] 0.075 | [15] 0.074 | [17] 0.001 | [18] -0.321 | [19] -0.01

BPIFA1 (UniProt Q9NP55)
inactive: [1] 0.051 | [2] -0.653 | [3] -0.291 | [4] -0.285 | [6] -0.048 | [7] -0.172 | [8] 0.072 | [9] 0.41 | [10] -0.198 | [13] 0.008 | [14] 0.901 | [15] 0.222 | [16] 1.85 | [17] 0.451 | [19] -0.062

BCL9L (UniProt Q86UU0)
inactive: [1] 0.051 | [2] 0.137 | [3] 0.061 | [4] -0.081 | [5] -0.016 | [6] 0.047 | [7] -0.167 | [10] 0.026 | [11] 0.048 | [12] -0.034 | [13] -0.057 | [14] -0.076 | [15] -0.008 | [16] -0.059 | [17] -0.009 | [18] -0.062 | [19] -0.049 | [20] -0.059

BRD3 (UniProt Q15059)
inactive: [1] -0.005 | [2] 0.084 | [3] -0.065 | [4] 0.004 | [5] -0.033 | [7] -0.013 | [8] -0.001 | [9] 0.036 | [11] -0.011 | [12] 0.04 | [15] 0.095 | [16] -0.054 | [17] -0.033 | [18] 0.059 | [20] -0.074
